Measured values taken from patent US10889825B2, “Compositions and methods thereof for down-regulation of genes following oral delivery of an RNAi molecule bioencapsulated within plant cells” (THE TRUSTEES OF THE UNIVERSITY OF PENNSYLVANIA, priority 2015, dated 2021).
At least one compound was matched to its structure with a doubt left.

Tested on: Helicoverpa armigera
Test: gossypol tolerance test, larvae on artificial diet supplemented with gossypol
Type: in vivo
Conditions: artificial diet supplemented with 0-4 mg/g of gossypol
Experimental: Cotton bollworm (Helicoverpa armigera) eggs were purchased from Benzon research laboratory. See the world wide web at benzonresearch.com/insectlist.htm. They were hatched at 25° C. and all the larvae were fed with the artificial diet (Southland Products Incorporated on the world wide web at tecinfo.com/˜southland/. All dishes were kept at 25° C. on a 14-h-day/10-h-night cycle. For the gossypol tolerance experiments, third instars larvae were transferred to the artificial diet supplemented with gossypol (0-4 mg) for 4 d and the increase in weight was recorded.
Gossypol and related sesquiterpene biosynthesized in cotton are toxic to many organisms. However, most Helicoverpa insects resist gossypol because the P450 monooxygenases in the midgut of these insects permit them to tolerate the gossypol. Therefore, in order to suppress P450 gene, two step insect bioassay was conducted. In the first step, third-instar larvae of Helicoverpa armigera were fed on P450: RNAi expressed leaves for four days. Then, all these larvae were transferred to the following diet or leaves: artificial diet with 3 mg/g gossypol or without gossypol; cotton leaves with glands/glandless and wild-type tobacco leaves. Addition of gossypol in the artificial diet or in leaves affects the growth and development of the larvae (FIG. 3). […]

**Q.** Which “gossypol mediated toxicity to larvae” value does the source give for Cc1cc2c(C(C)C)c(O)c(O)c(C=O)c2c(O)c1-c1c(C)cc2c(C(C)C)c(O)c(O)c(C=O)c2c1O [gossypol] here?
**A.** moderate
